## Assay results

Source: PubChem BioAssay AID504749 (NCATS, 2011).

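Malaria parasite (P. falciparum) lines kept in red blood cells; parasite DNA is measured by SYBR Green fluorescence after lysis, 72 h after compound addition.
Each compound was titrated across a series from about 0.000037 to 29 µM.
The number is the fitted AC50, the concentration giving a half-maximal change in signal; a lower value means higher potency, whether the curve shows a decrease or an increase.
Calls follow the curve class and fit quality: every row here is inconclusive, covering signal-raising curves and weak, poorly fitted, partial or highest-dose-only inhibition curves.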

Values are in nM.
Every entry below has the call inconclusive.
Only part of the assay is shown, chiefly results filed as inconclusive.
Potencies fitted to partial, single-point or poorly fitting curves are rough.
Some entries filed as inconclusive have a full curve.
The first word of each remark tells which way the curve ran; it can be opposite to the aim of the assay.

| Compound | condition | Potency (nM) | remark |
|---|---|---|---|
| `COC1=C(OC)C(=O)C(CCCCCCCCCCO)=C(C)C1=O` | TAB113 | 17782 | inhibitor, single point |
| `COC1=C(OC)C(=O)C(CCCCCCCCCCO)=C(C)C1=O` | W2 | 15101 | inhibitor, partial curve |
| `COC1=C(OC)C(=O)C(CCCCCCCCCCO)=C(C)C1=O` | DIV17 | 19011 | inhibitor, single point |
| `COC1=C(OC)C(=O)C(CCCCCCCCCCO)=C(C)C1=O` | CP247 | 17782 | inhibitor, single point |
| `COC1=C(OC)C(=O)C(CCCCCCCCCCO)=C(C)C1=O` | CP191 | 891.3 | activator, partial curve |
| `COC1=C(OC)C(=O)C(CCCCCCCCCCO)=C(C)C1=O` | 3D7 | 14125 | inhibitor, single point |
| `COC1=C(OC)C(=O)C(CCCCCCCCCCO)=C(C)C1=O` | GB4 | 16944 | inhibitor, single point |
| `COC1=C(OC)C(=O)C(CCCCCCCCCCO)=C(C)C1=O` | 7G8 | 17782 | inhibitor, single point |
| `COC1=C(OC)C(=O)C(CCCCCCCCCCO)=C(C)C1=O` | TAB165 | 11220 | inhibitor, partial curve, poor fit |
| `ClC1=C(Cl)C2(Cl)C3C4CC(C5OC45)C3C1(Cl)C2(Cl)Cl` (centres undefined) | TAB113 | 10000 | inhibitor, single point |
| `ClC1=C(Cl)C2(Cl)C3C4CC(C5OC45)C3C1(Cl)C2(Cl)Cl` (centres undefined) | 7G8 | 7943 | inhibitor, single point |
| `ClC1=C(Cl)C2(Cl)C3C4CC(C5OC45)C3C1(Cl)C2(Cl)Cl` (centres undefined) | CP260 | 14125 | inhibitor, single point |
| `ClC1=C(Cl)C2(Cl)C3C4CC(C5OC45)C3C1(Cl)C2(Cl)Cl` (centres undefined) | P94_40 | 17782 | inhibitor, single point |
| `ClC1=C(Cl)C2(Cl)C3C4CC(C5OC45)C3C1(Cl)C2(Cl)Cl` (centres undefined) | ATS95 | 14125 | inhibitor, single point |
| `ClC1=C(Cl)C2(Cl)C3C4CC(C5OC45)C3C1(Cl)C2(Cl)Cl` (centres undefined) | ICS | 11220 | inhibitor, single point |
| `ClC1=C(Cl)C2(Cl)C3C4CC(C5OC45)C3C1(Cl)C2(Cl)Cl` (centres undefined) | CP286 | 17782 | inhibitor, single point |
| `ClC1=C(Cl)C2(Cl)C3C4CC(C5OC45)C3C1(Cl)C2(Cl)Cl` (centres undefined) | CP265 | 12589 | inhibitor, single point |
| `CN(Cc1cnc2nc(N)nc(N)c2n1)c1ccc(C(=O)N[C@@H](CCC(=O)O)C(=O)O)cc1` | CP265 | 354.8 | inhibitor, partial curve |
| `CN(Cc1cnc2nc(N)nc(N)c2n1)c1ccc(C(=O)N[C@@H](CCC(=O)O)C(=O)O)cc1` | TAB113 | 354.8 | inhibitor, partial curve |
| `CN(Cc1cnc2nc(N)nc(N)c2n1)c1ccc(C(=O)N[C@@H](CCC(=O)O)C(=O)O)cc1` | CP217 | 56.2 | inhibitor, partial curve, poor fit |
| `CN(Cc1cnc2nc(N)nc(N)c2n1)c1ccc(C(=O)N[C@@H](CCC(=O)O)C(=O)O)cc1` | JCK | 354.8 | inhibitor, full curve, poor fit |
| `CN(Cc1cnc2nc(N)nc(N)c2n1)c1ccc(C(=O)N[C@@H](CCC(=O)O)C(=O)O)cc1` | CP335 | 169.4 | inhibitor, full curve, poor fit |
| `CN(Cc1cnc2nc(N)nc(N)c2n1)c1ccc(C(=O)N[C@@H](CCC(=O)O)C(=O)O)cc1` | P93_24 | 79.4 | inhibitor, full curve, poor fit |
| `CN(Cc1cnc2nc(N)nc(N)c2n1)c1ccc(C(=O)N[C@@H](CCC(=O)O)C(=O)O)cc1` | DIV17 | 75.7 | inhibitor, full curve, poor fit |
| `CN(Cc1cnc2nc(N)nc(N)c2n1)c1ccc(C(=O)N[C@@H](CCC(=O)O)C(=O)O)cc1` | DFO2036 | 63.1 | inhibitor, full curve, poor fit |
| `CN(Cc1cnc2nc(N)nc(N)c2n1)c1ccc(C(=O)N[C@@H](CCC(=O)O)C(=O)O)cc1` | CP256 | 79.4 | inhibitor, single point |
| `CN(Cc1cnc2nc(N)nc(N)c2n1)c1ccc(C(=O)N[C@@H](CCC(=O)O)C(=O)O)cc1` | GB4 | 42.6 | inhibitor, full curve, poor fit |
| `CN(Cc1cnc2nc(N)nc(N)c2n1)c1ccc(C(=O)N[C@@H](CCC(=O)O)C(=O)O)cc1` | CP185 | 79.4 | inhibitor, single point |
| `CN(Cc1cnc2nc(N)nc(N)c2n1)c1ccc(C(=O)N[C@@H](CCC(=O)O)C(=O)O)cc1` | CP238 | 70.8 | inhibitor, single point |
| `CN(Cc1cnc2nc(N)nc(N)c2n1)c1ccc(C(=O)N[C@@H](CCC(=O)O)C(=O)O)cc1` | Dd2 | 3.5 | inhibitor, full curve, poor fit |
| `CN(Cc1cnc2nc(N)nc(N)c2n1)c1ccc(C(=O)N[C@@H](CCC(=O)O)C(=O)O)cc1` | PAD | 79.4 | inhibitor, full curve, poor fit |
| `CN(Cc1cnc2nc(N)nc(N)c2n1)c1ccc(C(=O)N[C@@H](CCC(=O)O)C(=O)O)cc1` | ATS189 | 79.4 | inhibitor, single point |
| `CN(Cc1cnc2nc(N)nc(N)c2n1)c1ccc(C(=O)N[C@@H](CCC(=O)O)C(=O)O)cc1` | CP247 | 89.1 | inhibitor, single point |
| `CN(Cc1cnc2nc(N)nc(N)c2n1)c1ccc(C(=O)N[C@@H](CCC(=O)O)C(=O)O)cc1` | CP191 | 56.2 | inhibitor, single point |
| `CN(Cc1cnc2nc(N)nc(N)c2n1)c1ccc(C(=O)N[C@@H](CCC(=O)O)C(=O)O)cc1` | DIV14 | 84.9 | inhibitor, full curve, poor fit |
| `CO[C@@H]1[C@@H](OC2OC(C)C(OC3CC(C)(O)C(OC(=O)CC(C)C)C(C)O3)C(N(C)C)C2O)[C@@H](CC=O)C[C@@H](C)C(=O)/C=C\C2O[C@H]2C[C@@H](C)OC(=O)C[C@H]1OC(C)=O` (some centres undefined) | CP305 | 6012 | inhibitor, partial curve, poor fit |
| `CO[C@@H]1[C@@H](OC2OC(C)C(OC3CC(C)(O)C(OC(=O)CC(C)C)C(C)O3)C(N(C)C)C2O)[C@@H](CC=O)C[C@@H](C)C(=O)/C=C\C2O[C@H]2C[C@@H](C)OC(=O)C[C@H]1OC(C)=O` (some centres undefined) | PC15 | 11220 | inhibitor, single point |
| `CO[C@@H]1[C@@H](OC2OC(C)C(OC3CC(C)(O)C(OC(=O)CC(C)C)C(C)O3)C(N(C)C)C2O)[C@@H](CC=O)C[C@@H](C)C(=O)/C=C\C2O[C@H]2C[C@@H](C)OC(=O)C[C@H]1OC(C)=O` (some centres undefined) | CP211 | 1346 | inhibitor, full curve |

2 of the entries, repeated:

Compound,condition,Potency (nM),remark
CN(Cc1cnc2nc(N)nc(N)c2n1)c1ccc(C(=O)N[C@@H](CCC(=O)O)C(=O)O)cc1,P93_24,79.4,"inhibitor, full curve, poor fit"
COC1=C(OC)C(=O)C(CCCCCCCCCCO)=C(C)C1=O,TAB113,17782,"inhibitor, single point"